# In US11285156B2, “Substituted piperazines as KRAS G12C inhibitors” (Amgen Inc., priority 2018, dated 2022):
# Chains of the proteins cited; added tags and fusions are not shown. A line that says so, or that is headed by a name, gives the form on record, which may keep a tag or linker. Residues count along the entry.
# UniProt P01116, 1-164 with tags or gaps C118A/G12C limits assumed: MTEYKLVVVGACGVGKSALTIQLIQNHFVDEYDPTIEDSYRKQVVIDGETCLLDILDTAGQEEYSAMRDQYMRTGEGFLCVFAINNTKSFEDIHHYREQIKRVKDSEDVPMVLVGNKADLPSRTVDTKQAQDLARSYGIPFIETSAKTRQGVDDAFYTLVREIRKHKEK
# The match of structure and compound is tentative.
# Legend:
# [1] = molecular target: GDP-bound KRAS protein (aa 1-169), containing both G12C and C118A amino acid substitutions (Homo sapiens (Human), UniProt P01116, C118A/G12C); assay: Coupled nucleotide exchange assay (SOS-mediated nucleotide exchange, AlphaScreen); type: biochemical; conditions: read-out: Coupled exchange IC50 (5 min; μM); 5 min compound pre-incubation
# [2] = system: Phosphorylation of ERK1/2 in MIA PaCa-2 cells; assay: Phospho-ERK1/2 MSD assay in MIA PaCa-2 cells; type: cell-based; conditions: read-out: p-ERK IC50 (2 h, MiaPaCa-2; μM), 2 h compound treatment, EGF stimulated
# [3] = system: Phosphorylation of ERK1/2 in A549 cells; assay: Phospho-ERK1/2 MSD assay in A549 cells; type: cell-based; conditions: read-out: p-ERK IC50 (2 h, A549; μM), 2 h compound treatment, EGF stimulated
# Description: Phospho-ERK1/2 MSD Assay:
# MIA PaCa-2 (ATCC® CRL-1420™) and A549 (ATCC® CCL-185™) cells were cultured in RPMI 1640 Medium (ThermoFisher Scientific 11875093) containing 10% fetal bovine serum (ThermoFisher Scientific 16000044) and 1× penicillin-streptomycin-glutamine (ThermoFisher Scientific 10378016). Sixteen hours prior to compound treatment, MIA PaCa-2 or A549 cells were seeded in 96-well cell culture plates at a density of 25,000 cells/well and incubated at 37° C., 5% CO2. A compound dose-response titration was diluted in growth media, added to appropriate wells of a cell culture plate, and then incubated at 37° C., 5% CO2 for 2 or 4 hours (see Table 15). Following compound treatment, cells were stimulated with 10 ng/mL EGF (Roche 11376454001) for 10 min, washed with ice-cold Dulbecco's phosphate-buffered saline, no Ca2+ or Mg2+ (ThermoFisher Scientific 14190144), and then lysed in RIPA buffer (50 mM Tris-HCl pH 7.5, 1% Igepal, 0.5% sodium deoxycholate, 150 mM NaCl. and 0.5% sodium dodecyl sulfate) containing protease inhibitors (Roche 4693132001) and phosphatase inhibitors (Roche 4906837001). […] Assay plates were read on a Meso Scale Discovery Sector Imager 6000, and data were analyzed using a 4-parameter logistic model to calculate IC50 values.
smiles,measurement,setting,value
C#CCNc1cccc(F)c1-c1nc2c(cc1F)c(N1C[C@@H](C)N(C(=O)C=C)C[C@@H]1C)nc(=O)n2-c1c(C)ccnc1C(C)C,IC50,[1],0.067 µM
same,IC50,[2],0.054 µM
same,IC50,[3],> 7.5 µM
